Data taken from PubChem BioAssay AID2517 (National Center for Advancing Translational Sciences (NCATS), 2010).
Out of some 350,000 compounds screened, about 1,200 (0.34%) were called active. This list was built around the results that the source calls inconclusive (neither active nor inactive); the mix of calls is not that of the screen. The call rests on the fitted dose curve; in most records, active means well fitted inhibition curve with a large enough effect; inconclusive means small, poorly fitted or top-dose-only effect; inactive means no such curve, though single readings can be large or run the other way. Potencies of inconclusive entries are doubtful fits and often do not repeat.

By UniProt entry, the sequences of proteins in these tests, tags left out.
UniProt P27695, whole entry, looked up: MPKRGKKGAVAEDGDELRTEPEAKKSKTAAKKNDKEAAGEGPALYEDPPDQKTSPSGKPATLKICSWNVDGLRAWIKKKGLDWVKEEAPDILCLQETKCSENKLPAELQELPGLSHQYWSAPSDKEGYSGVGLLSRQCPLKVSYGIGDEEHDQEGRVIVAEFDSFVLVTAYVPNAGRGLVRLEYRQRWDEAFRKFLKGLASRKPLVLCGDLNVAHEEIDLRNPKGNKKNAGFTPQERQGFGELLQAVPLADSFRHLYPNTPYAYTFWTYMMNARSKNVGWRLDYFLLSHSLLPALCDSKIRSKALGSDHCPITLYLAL

molecular target: DNA repair nuclease/redox regulator APEX1 (Homo sapiens) (UniProt P27695); assay: qHTS Assay for Inhibitors of the Human Apurinic/apyrimidinic Endonuclease 1 (APE1); settings: recombinant APE1, TAMRA/BHQ-2 abasic DNA cleavage fluorescence; activity change, negative = inhibition: at 65.8 µM (top of the series); further: nearly all actives have a fitted effect of over 55% in size;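 on activity change, negative = inhibition: plate controls were vehicle for no effect and reference inhibitor for full effect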
Procedure, shortened: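 Compound pre-exposure to 0.75 nM APE1, 15 min at ambient temperature. Reaction initiated with 50 nM TAMRA/BHQ-2 THF substrate, read immediately in kinetic mode, 525 nm excitation, 598 nm emission.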
Potency means the concentration at half of the fitted maximal effect.

SMILES | Potency | activity change, negative = inhibition
CCN1C(=O)CC(C(=O)Nc2ccc(F)cc2)SC1=Nc1cccc(OC)c1 (stereo unspecified) | inconclusive: 15.8 µM [inhibitor, partial curve, poor fit] | –
Cc1ccc(CNc2ccc(N3CCNCC3=O)cc2)cc1 | inactive | –
Cc1cccc(N=C2NC(=O)/C(=C/C=C/c3ccco3)S2)c1C | inconclusive: 39.8 µM [inhibitor, single point] | –
COc1cc2c(C#N)c(N3CCOCC3)nc(N)c2c(N)n1 | inconclusive: 39.8 µM [inhibitor, single point] | –
CCN(c1ccc(F)cc1)S(=O)(=O)c1ccc2[nH]cc(C(=O)NCCCN3CCOCC3)c(=O)c2c1 | inconclusive: 44.7 µM [inhibitor, single point] | –
O=C(O)C(Cc1ccccc1)N1C(=O)/C(=C/C=C/c2ccco2)SC1=S (stereo unspecified) | active: 1.58 µM | –
C=C(C)C(=O)Nc1cccc(C2=NOC3(C2)C[C@@H](C(N)=O)N(C(=O)CC(c2ccccc2)c2ccccc2)C3)c1 (stereo partly specified) | inconclusive: 22.4 µM [inhibitor, single point] | –
Cc1cn2c(N)c(/C=C3\C=Nc4ccccc43)c(=O)nc2s1 | inconclusive: 20 µM [inhibitor, single point] | –
CCN(c1ccccc1)S(=O)(=O)c1cc(C(=O)O)ccc1C | active: 15.8 µM | –
CCn1c(=O)cc(N2CCC3(CC2)OCCO3)[nH]c1=O | inconclusive: 7.08 µM [inhibitor, single point] | –
COC(=O)c1ccc(CSc2nnc(NC(=O)C3CC(=O)N(c4ccc5c(c4)OCCO5)C3)s2)cc1 (stereo unspecified) | inactive | –
CCC(=O)Nc1ccc(Oc2ccc3c(c2)C(=O)N(c2ccc(O)cc2)C3=O)cc1 | inconclusive: 44.7 µM [inhibitor, single point] | –
C=CCOC(=O)C(C(C)=O)C(NC(=O)OC)c1cccc(C(F)(F)F)c1 (stereo unspecified) | inconclusive: 7.94 µM [inhibitor, single point] | –
Cc1cccn2c(NCc3ccc4c(c3)OCO4)c(-c3ccc(O)cc3)nc12 | inconclusive: 3.55 µM [inhibitor, single point] | –
CCOc1cc(/C=N/N=C(N)N)ccc1OCc1ccc(Cl)cc1 | inactive | –
O=C(N/N=C/c1cc(Br)c(O)c(Br)c1O)c1cccnc1 | inactive | –
Cc1ccc(C)c2[nH]c(=O)c(CN(Cc3ccc4c(c3)OCO4)Cc3nnnn3Cc3ccco3)cc12 | inconclusive: 39.8 µM [inhibitor, single point] | –
CCc1nnc(NC(=O)CN2C(=O)/C(=C/c3ccc(OC)c(OC)c3)SC2=S)s1 | inactive | –
Cc1cccc(NS(=O)(=O)c2nnc(NC(=O)c3cccc(C)c3)s2)c1 | inactive | –
COc1cc(OC)c2cc(-c3ccncc3)cnc2c1 | inconclusive: 17.8 µM [inhibitor, full curve, poor fit] | –
CC(=O)Nc1ccc(NC(=O)CCC(=O)OCC(=O)c2ccc(C)c([N+](=O)[O-])c2)cc1 | inconclusive: 35.5 µM [inhibitor, single point] | –

SMILES | Potency | activity change, negative = inhibition
O=C(OCc1cnc(Cl)s1)c1cccc(Cl)c1Cl | inconclusive: 10 µM [inhibitor, partial curve, poor fit] | –
CC1=CC(C)(C)N(S(=O)(=O)c2ccc(C)cc2)c2ccccc21 | inconclusive: 3.55 µM [inhibitor, single point] | –
CO[C@H]1COC(=O)[C@@H](Cc2ccccc2)NC(=O)[C@@H](C)COC(=O)CCC[C@@H]1C | – | inactive: 2.74% [at 12.4 µM]
CC1C/C(=C\c2ccccc2[N+](=O)[O-])c2nc3ccccc3c(C(=O)O)c2C1 (stereo unspecified) | inactive | –
O=C(CSc1nc(-c2ccccc2)nc2c1Cc1ccccc1O2)Nc1ccc(C(=O)O)cc1 | inactive | –
Cc1ccc(/C=C/C(=O)O)cc1S(=O)(=O)NCc1ccco1 | inconclusive: 20 µM [inhibitor, single point] | –
COc1cc(C(=O)Nc2ccc(C(=O)O)cc2)ccc1OC(C)=O | inconclusive: 7.94 µM [inhibitor, single point] | –
CCCNC(=O)/C(=C/c1cn(S(=O)(=O)N(C)C)c2ccccc12)NC(=O)c1ccc(OC)cc1 | inconclusive: 39.8 µM [inhibitor, single point] | –
CSCC[C@@H]1NC(=O)C/C=C\[C@@H](C)COC(=O)[C@@H](CCSC)NC(=O)C/C=C\[C@@H](C)COC1=O | inconclusive: 3.98 µM [inhibitor, single point] | –
C=CC[C@@H]1C=C[C@@H](O/N=C(/C)CCC(=O)OC[C@@H]2O[C@H](c3ccccc3)C=C[C@@H]2Oc2ccc(OC)cc2)[C@@H](CO)O1 | inconclusive: 4.47 µM [inhibitor, single point] | –
O=C(CN1c2ccccc2Sc2ccccc21)NNC(=S)Nc1ccc(Cl)cc1 | inconclusive: 6.31 µM [inhibitor, partial curve] | –
CCSc1nc2ccccc2[nH]1 | inconclusive: 39.8 µM [inhibitor, partial curve, poor fit] | –
CC1(O)N(CCC(=O)Nc2cccc(F)c2)C(=O)OC12CCCCC2 (stereo unspecified) | inconclusive: 0.199 µM [inhibitor, full curve, poor fit] | –
CO/N=C/C=C1/N(C)c2ccccc2C1(C)C | inactive | –
COc1ccc(N(C(C)C(=O)N/N=C/c2ccc(OCC(C)C)cc2)S(C)(=O)=O)cc1 (stereo unspecified) | inconclusive: 11.2 µM [inhibitor, partial curve] | –
Cc1cccc(S(=O)(=O)c2c(N)n(/N=C/c3ccco3)c3nc4ccccc4nc23)c1 | inconclusive: 28.2 µM [inhibitor, single point] | –
COc1ccccc1NC(=O)Cn1c(=O)n2nc(C)nc2c2ccccc21 | inconclusive: 5.62 µM [inhibitor, full curve, poor fit] | –
Oc1c(C(Nc2nc3ccccc3s2)c2ccco2)ccc2cccnc12 (stereo unspecified) | inconclusive: 8.91 µM [inhibitor, partial curve] | –
O=C(Nc1cc(C(F)(F)F)cc(C(F)(F)F)c1)c1cc(Cl)ccc1O | inactive | –
O=C1c2cccc3cccc(c23)C(=O)N1c1ccc2ncccc2c1 | inactive | –
